# From PubChem BioAssay AID1671190 (National Center for Advancing Translational Sciences (NCATS), 2021)
# Sequences of proteins named here, by UniProt entry; tags and fusion partners are left off. A change or cut given only in a name is not applied to a line headed by its entry.
# UniProt P18054: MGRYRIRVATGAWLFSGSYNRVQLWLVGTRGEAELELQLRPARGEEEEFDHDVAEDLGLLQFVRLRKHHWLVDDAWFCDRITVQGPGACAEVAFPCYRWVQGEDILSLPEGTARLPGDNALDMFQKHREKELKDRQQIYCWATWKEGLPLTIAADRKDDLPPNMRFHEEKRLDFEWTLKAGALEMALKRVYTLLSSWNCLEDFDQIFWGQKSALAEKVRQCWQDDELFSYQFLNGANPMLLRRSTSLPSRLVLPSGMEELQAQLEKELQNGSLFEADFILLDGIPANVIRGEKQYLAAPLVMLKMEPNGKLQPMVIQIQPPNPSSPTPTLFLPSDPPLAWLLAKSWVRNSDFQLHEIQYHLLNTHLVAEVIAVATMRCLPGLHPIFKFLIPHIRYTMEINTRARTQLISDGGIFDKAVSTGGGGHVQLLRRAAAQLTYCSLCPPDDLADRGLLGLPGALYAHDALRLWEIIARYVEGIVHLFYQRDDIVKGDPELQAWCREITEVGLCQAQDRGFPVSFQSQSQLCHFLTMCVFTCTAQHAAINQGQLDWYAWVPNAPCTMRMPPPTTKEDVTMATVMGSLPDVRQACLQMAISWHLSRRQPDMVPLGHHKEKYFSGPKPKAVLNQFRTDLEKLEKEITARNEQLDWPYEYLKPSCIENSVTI
# Where “and” joins values, the source holds several entries; their conditions need not be identical. Equal values may be shown once. Out of some 580,000 compounds screened, about 6,100 (1.1%) were called active. The inconclusive results got no clear call from the source; some entries with a clear call stand among them for comparison. Calls follow the shape of the dose curve; as a rule, active = well fitted inhibition curve with a large enough effect; inconclusive = small, poorly fitted or top-dose-only effect, or another doubt; inactive = no such curve, though single readings can be large or run the other way. Potencies beside an inconclusive call are fits to weak or partial responses and may not hold up.
# Biological target: Polyunsaturated fatty acid lipoxygenase ALOX12 (Homo sapiens) (UniProt P18054)
# Experiment: Primary qHTS assay for inhibitors of human arachidonate 12S-lipoxygenase (ALOX12): Round 2
# Details: purified 12hLO, xylenol orange hydroperoxide absorbance; series mostly up to 108 µM
# Procedure, shortened: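 Purified human 12hLO (150 nM final) in 25 mM Hepes, 0.01% Triton X-100, pH 7.0 was preincubated 15 min at room temperature with compound. Then 40 uM arachidonic acid was added, 30 min. Hydroperoxide was read by Fe-XO absorbance ratio 573/405 nm.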
# Potency is read from the fitted curve at half-maximal effect.
row,Compound,Potency
1,O=C(O)CCC(=O)N1Cc2ccccc2CC2(CCCCN2CCc2ccccc2)C1 (stereo unspecified),"inconclusive: 39.8 µM [inhibitor, partial curve]"
2,CCCN(CC(=O)c1cc(C)n(C)c1C)S(=O)(=O)c1cccc(C(F)(F)F)c1,inactive
3,CCC1Nc2ccccc2-c2nnc(SC)nc2O1 (stereo unspecified),"inconclusive: 39.8 µM [inhibitor, single point]"
4,COc1ccc(-c2cc(NC=O)c3ncc(-c4cccc(C(F)(F)F)c4)n3c2)cc1OC,"inconclusive: 44.7 µM [inhibitor, partial curve, poor fit]"
5,S=C(N=Nc1ccccc1)NNc1ccccc1,inactive
6,Cc1ccc(NC(=O)NCc2nc(-c3ccccc3)oc2C)cc1C,inactive
7,CCC[C@H](N)C(=O)N1CCC(c2cc(N3CCOCC3)nc(C)n2)CC1,inactive
8,COc1ccccc1Cc1c(-c2cccc(Cl)c2)nc2ccc(Cl)cn12,"inconclusive: 35.5 µM [inhibitor, full curve, poor fit]"
9,Cc1ccc(NC(=S)Nc2cccc3cnccc23)cc1C,"inconclusive: 44.7 µM [inhibitor, partial curve, poor fit]"
10,O=C(Nc1nccs1)c1ccc(S(=O)(=O)c2ccccc2)cc1,inactive
11,S=c1[nH]nc(-c2ccc3ncccc3c2)n1-c1ccc2c(c1)OCCO2,"inconclusive: 39.8 µM [inhibitor, partial curve]"
12,O=C(c1cccnc1)N1CCN(CCCc2ccccc2)CC1,"inconclusive: 0.355 µM [inhibitor, full curve, poor fit]"
13,N#Cc1ccccc1OCc1csc(-c2ccccc2)n1,"inconclusive: 112 µM [inhibitor, partial curve, poor fit]"
14,Cc1cccc(NC(=O)C2CCN(S(=O)(=O)c3c(C)noc3/C=C/c3ccco3)CC2)n1,"inconclusive: 63.1 µM [inhibitor, partial curve, poor fit]"
15,CN1CCc2nc(NC(=O)COc3ccc4ccccc4c3)sc2C1,inactive
16,O=C(NC1CCCC1)C(c1ccc(F)cc1)N(Cc1ccc(F)cc1)C(=O)CCl (stereo unspecified),"inconclusive: 25.1 µM [inhibitor, partial curve, poor fit]"
17,Fc1cccc(NC(=S)NCc2ccc(Cl)cc2)c1,"inconclusive: 39.8 µM [inhibitor, partial curve, poor fit]"
18,Cc1ccc(/C=C/S(=O)(=O)NCC(=O)OCCO)cc1,inactive
19,COc1ccc2c(C)c(CCC(=O)NCc3ccc(S(N)(=O)=O)cc3)c(=O)oc2c1,"inconclusive: 6.31 µM [inhibitor, single point]"
20,COc1ccccc1CNC(=O)CNC(=O)[C@@H]1Cc2ccccc2CN1,"inconclusive: 1.58 µM [inhibitor, partial curve, poor fit]"
21,Cc1[nH]c2ccccc2c1C(C[N+](=O)[O-])c1ccco1 (stereo unspecified),"inconclusive: 63.1 µM [inhibitor, partial curve, poor fit]"
22,COc1cccc(-c2nn(-c3ccc(C)cc3)cc2C(=O)N(C)CC(=O)Nc2cccc(F)c2)c1,inactive

# Random excerpt: 2 compounds from above.
row,Compound,Potency
14,Cc1cccc(NC(=O)C2CCN(S(=O)(=O)c3c(C)noc3/C=C/c3ccco3)CC2)n1,"inconclusive: 63.1 µM [inhibitor, partial curve, poor fit]"
13,N#Cc1ccccc1OCc1csc(-c2ccccc2)n1,"inconclusive: 112 µM [inhibitor, partial curve, poor fit]"

# Further compounds

row,Compound,Potency
1,COC(=O)CCCCCCCNS(=O)(=O)c1ccc([N+](=O)[O-])cc1,"inconclusive: 15.8 µM [inhibitor, full curve, poor fit]"
2,c1cc(CNC2C3CC4CC(C3)CC2C4)ccn1 (stereo unspecified),"inconclusive: 31.6 µM [inhibitor, partial curve, poor fit] and inconclusive: 10 µM [inhibitor, full curve]"
3,CC(=O)N1CCC[C@H]1C(=O)NCC1Cc2cc(-c3cccc(OC(F)(F)F)c3)ccc2O1 (stereo partly specified),inactive
4,Cc1ccc(-c2nc3cccnc3s2)cc1NS(=O)(=O)c1ccc2c(c1)OCCO2,inactive
5,CC(=O)Nc1ccc(S(=O)(=O)Oc2ccc(C(=S)N3CCC(O)CC3)cc2)cc1,"inconclusive: 141 µM [inhibitor, partial curve, poor fit]"
6,Cc1ccc(S(=O)(=O)N2CCCCC2)cc1NC(=O)Cn1cnnn1,inactive
7,Cc1cc(Nc2ccc3c(c2)OCCO3)n2nc(C)nc2n1,"inconclusive: 2.82 µM [inhibitor, partial curve, poor fit]"
8,Cc1c(-c2ccccc2)oc2c(C(=O)OCC(=O)Nc3ccc(F)c(F)c3F)cccc2c1=O,"inconclusive: 44.7 µM [inhibitor, partial curve]"
9,CCN(C1CCOCC1)C1CN(C(=O)c2nccn2C)C1,inactive
10,Cc1cccc(NC(=O)c2cc(-c3ccc(C)s3)nc3ccccc23)n1,"inconclusive: 89.1 µM [inhibitor, single point]"
11,O=C(CSc1n[nH]c(-c2ccccc2)n1)NCCCc1ccccc1,"inconclusive: 70.8 µM [inhibitor, partial curve, poor fit]"
12,CCn1c(SCC(=O)c2ccc(Cl)s2)nnc1-c1ccc(OC)cc1,"inconclusive: 39.8 µM [inhibitor, partial curve]"
13,COc1cc(Cl)c(C)cc1NC(=O)c1ccc2c(SCC(=O)O)c3c(nc2c1)CCCC3,"inconclusive: 158 µM [inhibitor, single point]"
14,Cc1ccc(S(=O)(=O)N2[C@H](CC(=O)OCc3ccccc3)OC[C@@H]2C(C)C)cc1,inactive
15,Cc1cc2oc(C(=O)Nc3ccccc3C(F)(F)F)cc(=O)c2cc1C,"inconclusive: 0.251 µM [inhibitor, full curve, poor fit]"
16,C/C(CCc1oc2ccccc2c1-c1ccc(C)o1)=N\O,"inconclusive: 28.2 µM [inhibitor, full curve, poor fit]"
17,CC(C)c1ccc2oc(=O)cc(-c3oc4ccccc4c3N)c2c1,inactive
18,CC(C)NCCOCCOc1ccccc1,"inconclusive: 56.2 µM [inhibitor, partial curve, poor fit]"
19,O=C(Nc1ccc(S(=O)(=O)N2CCOCC2)cc1)c1ccc(Cl)c([N+](=O)[O-])c1,inactive
20,O=C(NCc1ccco1)c1cc(NS(=O)(=O)c2cccc([N+](=O)[O-])c2)ccc1O,"inconclusive: 63.1 µM [inhibitor, partial curve, poor fit]"
21,Nc1nc(N)c2nc(-c3ccccc3)c(N)nc2n1,inactive
22,COc1cccc2cc(-c3csc(Nc4ccc(C)cc4)n3)c(=O)oc12,"inconclusive: 8.91 µM [inhibitor, full curve]"

row,Compound,Potency
1,CCSc1nnc2ccc(-c3ccc(C)cc3)nn12,"inconclusive: 100 µM [inhibitor, single point]"
2,COc1cccc(CNC(=O)C(C)n2nc(-c3ccccc3)c3ccccc32)c1OC (stereo unspecified),inactive
3,CCCc1ccc(C(NC(=O)c2nn(C)c(=O)c3ccccc23)c2cccs2)cc1 (stereo unspecified),inactive
4,N#Cc1ccc(COC(=O)c2ccccc2NCCO)cc1,inactive
5,O=C(OCc1csc(-c2ccccc2)n1)c1cccs1,"inconclusive: 28.2 µM [inhibitor, partial curve, poor fit]"
6,COc1ccc(N2C[C@H](CSC)[C@@H](CC(=O)Nc3ccccc3)C2=O)cc1,"inconclusive: 31.6 µM [inhibitor, single point]"
7,Cc1[nH]n(-c2ccccc2)c(=S)c1C=Nc1cccc([N+](=O)[O-])c1,"inconclusive: 0.501 µM [inhibitor, full curve, poor fit]"
8,COCCn1ncc(N2CCC(NC(=O)c3ccc(OC)c(F)c3)CC2)cc1=O,"inconclusive: 31.6 µM [inhibitor, partial curve, poor fit]"
9,Cc1[nH]n(-c2ncc(-c3ccccc3)s2)c(=O)c1C(c1ccc(Cl)cc1)C(C#N)C#N (stereo unspecified),"inconclusive: 35.5 µM [inhibitor, partial curve]"
10,O=C(COc1ccccc1)NC(=S)Nc1ccc2c(c1)Cc1ccccc1-2,"inconclusive: 15.8 µM [inhibitor, full curve]"
11,Cc1cc(=O)oc2cc(OCC(=O)N3c4ccccc4CC3C)ccc12 (stereo unspecified),inactive
12,Cc1cccc(NC(=O)CO/N=C/c2ccc3c(c2)OCO3)c1,"inconclusive: 56.2 µM [inhibitor, partial curve, poor fit]"
13,COc1cccc(-n2cc(-c3ccc(F)cc3)[nH]c2=S)c1,active: 22.4 µM
14,COc1ccc(-c2noc(CCCC(=O)N3CCN(c4cc(C)ccc4C)CC3)n2)cc1,"inconclusive: 79.4 µM [inhibitor, partial curve, poor fit]"
15,O=C(Nc1ccc(F)c(Cl)c1)c1cc(S(=O)(=O)N2CCc3ccccc3C2)ccc1F,inactive
16,C[C@H](O)[C@@H]1C(=O)N2CCc3c([nH]c4ccccc34)[C@@H]2C[C@@H]1N(C)S(=O)(=O)c1ccccc1,"inconclusive: 50.1 µM [inhibitor, partial curve, poor fit]"
17,O=C(CSc1ncc(-c2ccc(F)cc2)o1)Nc1ccc(Cl)cc1,"inconclusive: 44.7 µM [inhibitor, partial curve, poor fit]"
18,CCC(=O)C1CCCN(C(=O)c2ccc3nc(-c4cccc(OC)c4)oc3c2)C1 (stereo unspecified),"inconclusive: 79.4 µM [inhibitor, partial curve, poor fit]"
19,Cn1c2ccccc2c(=O)c2cc(NCCCN3CCOCC3)ccc21,inactive
20,O=C(Nc1ccn(CCCN2CCC(N3CCOCC3)CC2)c(=O)n1)OCc1ccccc1,"inconclusive: 141 µM [inhibitor, single point]"
21,c1ccc(Nc2nc(-c3ccc4c(c3)OCO4)nc3ccccc23)cc1,"inconclusive: 5.62 µM [inhibitor, full curve]"
22,O=C(CCN1CCOCC1)NNC(=S)NC(=O)c1ccc(Br)cc1,"inconclusive: 35.5 µM [inhibitor, partial curve, poor fit]"

# Filtered by structure: the entries above containing a cyano group.
row,Compound,Potency
13,N#Cc1ccccc1OCc1csc(-c2ccccc2)n1,"inconclusive: 112 µM [inhibitor, partial curve, poor fit]"
4,N#Cc1ccc(COC(=O)c2ccccc2NCCO)cc1,inactive
9,Cc1[nH]n(-c2ncc(-c3ccccc3)s2)c(=O)c1C(c1ccc(Cl)cc1)C(C#N)C#N (stereo unspecified),"inconclusive: 35.5 µM [inhibitor, partial curve]"
